Measured values as given in PubChem BioAssay AID330 (DTP/NCI, 2004).
The list shows only some results of the screen, not a fair sample: it gathers tests that were run many times, whatever their T/C, doses with no T/C, and many T/C values between a quarter and a half above the control. Other doses and runs of a compound stand elsewhere. T/C: endpoint of the treated group in % of that of the vehicle group. Some doses have a count of surviving animals in place of a T/C: the source files T/C as zero there, which appears to mark a toxic dose or a test without result, not a measured value. Some doses without a T/C left all or most animals alive at the check, yet need not have been tolerated: survival well below the control is almost never listed, so the zero probably covers shortened survival too. Counts of survivors are from the toxicity check (mostly the fifth day) where no day follows; animals may have died later. Schedules are NCI's codes, read here as Q, the interval in days (D) or hours (H), X, the number of doses. Some entries hold several experiments; the results are listed from low to high. For survival time, this PubChem deposit counts one and a half times the control or more as active, and values a quarter to a half above the control carry no call in these data; other NCI protocols may use other cut-offs. Counts like (3×) give the number of equal values in this list. Some T/C values are followed by the survivors on the day toxicity was checked, most often the fifth; where none is given, no animal had died by that day.

Tested on: P388 leukemia ip, CD2F1 mice, survival T/C
Experiment: NCI In Vivo Anticancer Drug Screen. Data for tumor model P388 Leukemia (intraperitoneal) in CD2F1 (CDF1) mice
Details: T/C endpoint: median survival time, higher T/C = longer survival
[1] = dose: 20.0 mg/kg/injection, schedule: Q01DX005 (ip), vehicle: saline with Tween-80
[2] = dose: 64.0 mg/kg/injection, schedule: Q04DX003 (ip), vehicle: water

Which results are given for CCOc1ccc(Br)cc1/C=N/NS(=O)(=O)c1ccc(C)cc1?
T/C (dose: 118.0 mg/kg/injection, schedule: Q01DX009 (ip), vehicle: saline with Tween-80): 128 % of control; T/C (dose: 178.0 mg/kg/injection, schedule: Q01DX009 (ip), vehicle: saline with Tween-80): 133 % of control; T/C (dose: 188.0 mg/kg/injection, schedule: Q01DX009 (ip), vehicle: saline with Tween-80): 142 % of control; T/C (dose: 200.0 mg/kg/injection, schedule: Q01DX009 (ip), vehicle: saline with Tween-80): 138 % of control; T/C (dose: 266.0 mg/kg/injection, schedule: Q01DX009 (ip), vehicle: saline with Tween-80): 147 % of control (2×); survivor count (dose: 400.0 mg/kg/injection, schedule: Q01DX009 (ip), vehicle: saline with Tween-80): 6 of 6; survivor count (dose: 600.0 mg/kg/injection, schedule: Q01DX009 (ip), vehicle: saline with Tween-80): 6 of 6

Which survivor count (dose: 400.0 mg/kg/injection, schedule: Q04DX002 (ip), vehicle: Klucel (hydroxypropylcellulose) (HPC)) does the source give for Cc1nc2n(c1C(N)=O)CCS2 here?
The survivor count was 1 of 6.

With O=C(O)CCCc1ccc(N(CCCl)CCCl)cc1 as the molecule, how does the T/C (dose: 1.87 mg/kg/injection, schedule: Q01DX009 (ip), vehicle: Klucel (hydroxypropylcellulose) (HPC)) read?
The T/C was 141 % of control.

What about the T/C (dose: 2.0 mg/kg/injection, schedule: Q03HX008 (ip), vehicle: saline) of the same molecule?
Its T/C is 127 % of control.

What about the T/C (dose: 2.5 mg/kg/injection, schedule: Q01DX005 (ip), vehicle: saline with Tween-80, evaluated on day 30) of the same molecule?
Its T/C is 121 and 131 % of control.

What about the T/C (dose: 2.5 mg/kg/injection, schedule: Q01DX005 (ip), vehicle: saline with Tween-80, evaluated on day 45) of the same molecule?
The T/C was 126 and 127 % of control.

And the T/C (dose: 4.0 mg/kg/injection, schedule: Q01DX005 (ip), vehicle: saline with Tween-80)?
The T/C was 130 and 142 % of control.

And the T/C (dose: 4.0 mg/kg/injection, schedule: Q03HX024 (ip), vehicle: saline)?
Its T/C is 131 % of control.

And the T/C (dose: 5.0 mg/kg/injection, schedule: Q01DX005 (ip), vehicle: saline with Tween-80, evaluated on day 30)?
Its T/C is 130 and 151 % of control.

And the T/C (dose: 5.0 mg/kg/injection, schedule: Q01DX005 (ip), vehicle: saline with Tween-80, evaluated on day 45)?
The T/C was 148 % of control (2×).

And the T/C (dose: 6.0 mg/kg/injection, schedule: Q01DX009 (ip), vehicle: saline + alcohol)?
The T/C was 149 % of control.

What about the T/C (dose: 7.2 mg/kg/injection, schedule: Q04DX002 (ip), vehicle: saline with Tween-80) of the same molecule?
The T/C was 141 % of control.

What about the T/C (dose: 8.0 mg/kg/injection, schedule: Q01DX005 (ip), vehicle: saline with Tween-80) of the same molecule?
The T/C was 146 % of control [7 of 8 alive].

And the T/C (dose: 8.0 mg/kg/injection, schedule: Q03HX008 (ip), vehicle: saline)?
Its T/C is 140 % of control.

And the T/C (dose: 8.0 mg/kg/injection, schedule: Q04DX003 (ip), vehicle: Klucel (hydroxypropylcellulose) (HPC))?
The T/C was 128 % of control.

And the T/C (dose: 8.0 mg/kg/injection, schedule: Q04DX003 (ip), vehicle: water)?
The T/C was 130 % of control.

And the T/C (dose: 10.0 mg/kg/injection, schedule: Q01DX005 (ip), vehicle: saline with Tween-80, evaluated on day 30)?
Its T/C is 153 and 186 % of control.

What about the T/C (dose: 10.0 mg/kg/injection, schedule: Q01DX005 (ip), vehicle: saline with Tween-80, evaluated on day 45) of the same molecule?
The T/C was 181 and 182 % of control.

And the T/C (dose: 12.0 mg/kg/injection, schedule: Q04DX002 (ip), vehicle: saline with Tween-80)?
The T/C was 138 % of control.

What about the T/C (dose: 15.0 mg/kg/injection, schedule: Q01DX009 (ip), vehicle: Klucel (hydroxypropylcellulose) (HPC)) of the same molecule?
The T/C was 149 % of control.

What about the survivor count (dose: 16.0 mg/kg/injection, schedule: Q01DX005 (ip), vehicle: saline with Tween-80) of the same molecule?
The survivor count was 3 of 6.

And the T/C (dose: 16.0 mg/kg/injection, schedule: Q01DX009 (ip), vehicle: saline)?
The T/C was 125 % of control.

What about the survivor count (dose: 16.0 mg/kg/injection, schedule: Q03HX024 (ip), vehicle: saline) of the same molecule?
Its survivor count is 10 of 10.

What about the T/C (dose: 16.0 mg/kg/injection, schedule: Q04DX003 (ip), vehicle: saline) of the same molecule?
Its T/C is 136 % of control.

And the T/C (dose: 16.0 mg/kg/injection, schedule: Q04DX003 (ip), vehicle: water, evaluated on day 30)?
The T/C was 130 % of control.

What about the T/C (dose: 16.0 mg/kg/injection, schedule: Q04DX003 (ip), vehicle: water, evaluated on day 45) of the same molecule?
Its T/C is 142 % of control.

And the T/C [1]?
The T/C was 220 % of control.

And the survivor count [1]?
The survivor count was 1 of 6, 2 of 8, 3 of 6.

And the survivor count (dose: 25.0 mg/kg/injection, schedule: Q01DX009 (ip), vehicle: Klucel (hydroxypropylcellulose) (HPC))?
The survivor count was 0 of 8.

And the T/C (dose: 30.0 mg/kg/injection, schedule: Q01DX009 (ip), vehicle: Klucel (hydroxypropylcellulose) (HPC))?
Its T/C is 141 % of control.

And the T/C (dose: 32.0 mg/kg/injection, schedule: Q01DX001 (ip), vehicle: saline)?
Its T/C is 145 % of control.

And the survivor count (dose: 32.0 mg/kg/injection, schedule: Q01DX005 (ip), vehicle: saline with Tween-80)?
Its survivor count is 0 of 6.

What about the survivor count (dose: 32.0 mg/kg/injection, schedule: Q01DX009 (ip), vehicle: saline) of the same molecule?
Its survivor count is 9 of 10.

And the survivor count (dose: 32.0 mg/kg/injection, schedule: Q01DX009 (oral), vehicle: saline)?
Its survivor count is 9 of 10.

And the survivor count (dose: 32.0 mg/kg/injection, schedule: Q01DX009 (sc), vehicle: saline)?
The survivor count was 7 of 10.

And the survivor count (dose: 60.0 mg/kg/injection, schedule: Q01DX009 (ip), vehicle: Klucel (hydroxypropylcellulose) (HPC))?
Its survivor count is 3 of 6.

And the T/C (dose: 64.0 mg/kg/injection, schedule: Q01DX001 (ip), vehicle: saline)?
Its T/C is 140 % of control [9 of 10 alive].

What about the survivor count (dose: 64.0 mg/kg/injection, schedule: Q01DX009 (ip), vehicle: saline) of the same molecule?
Its survivor count is 0 of 10.

What about the survivor count (dose: 64.0 mg/kg/injection, schedule: Q01DX009 (oral), vehicle: saline) of the same molecule?
The survivor count was 4 of 10.

And the survivor count (dose: 64.0 mg/kg/injection, schedule: Q01DX009 (sc), vehicle: saline)?
The survivor count was 4 of 10.

And the survivor count (dose: 64.0 mg/kg/injection, schedule: Q04DX003 (ip), vehicle: saline)?
The survivor count was 8 of 10.

What about the T/C [2] of the same molecule?
Its T/C is 149 % of control.

And the survivor count [2]?
Its survivor count is 5 of 6.

What about the survivor count (dose: 64.0 mg/kg/injection, schedule: Q04DX003 (oral), vehicle: saline) of the same molecule?
Its survivor count is 9 of 10.

And the survivor count (dose: 64.0 mg/kg/injection, schedule: Q08DX002 (ip), vehicle: saline)?
The survivor count was 10 of 10.

And the survivor count (dose: 128.0 mg/kg/injection, schedule: Q01DX001 (ip), vehicle: saline)?
The survivor count was 0 of 10.

And the survivor count (dose: 128.0 mg/kg/injection, schedule: Q01DX001 (oral), vehicle: saline)?
Its survivor count is 0 of 10.

And the T/C (dose: 128.0 mg/kg/injection, schedule: Q01DX001 (sc), vehicle: saline)?
Its T/C is 140 % of control [8 of 10 alive].

And the survivor count (dose: 128.0 mg/kg/injection, schedule: Q01DX009 (oral), vehicle: saline)?
Its survivor count is 0 of 10.

What about the survivor count (dose: 128.0 mg/kg/injection, schedule: Q04DX003 (ip), vehicle: saline) of the same molecule?
Its survivor count is 0 of 10.

And the survivor count (dose: 128.0 mg/kg/injection, schedule: Q04DX003 (oral), vehicle: saline)?
The survivor count was 3 of 10.

And the survivor count (dose: 128.0 mg/kg/injection, schedule: Q08DX002 (ip), vehicle: saline)?
Its survivor count is 0 of 10.

What about the survivor count (dose: 256.0 mg/kg/injection, schedule: Q01DX001 (oral), vehicle: saline) of the same molecule?
The survivor count was 0 of 10.

What about the survivor count (dose: 256.0 mg/kg/injection, schedule: Q01DX009 (oral), vehicle: saline) of the same molecule?
Its survivor count is 0 of 10.

And the survivor count (dose: 256.0 mg/kg/injection, schedule: Q04DX003 (oral), vehicle: saline)?
Its survivor count is 0 of 10.

What about the survivor count (dose: 512.0 mg/kg/injection, schedule: Q01DX001 (oral), vehicle: saline) of the same molecule?
Its survivor count is 0 of 10.

And the survivor count (dose: 512.0 mg/kg/injection, schedule: Q04DX003 (oral), vehicle: saline)?
The survivor count was 0 of 10.

And the survivor count (dose: 1024.0 mg/kg/injection, schedule: Q01DX001 (oral), vehicle: saline)?
The survivor count was 0 of 10.

And the survivor count (dose: 1024.0 mg/kg/injection, schedule: Q04DX003 (oral), vehicle: saline)?
The survivor count was 0 of 10.

N=C(N)c1cn(C2OC(CO)C(O)C2O)c2ncnc(N)c12 (stereo unspecified) was tested. Which T/C (dose: 2.2 mg/kg/injection, schedule: Q04DX003 (ip), vehicle: saline) did it give?
The T/C was 140 % of control.

What about the T/C (dose: 3.3 mg/kg/injection, schedule: Q04DX003 (ip), vehicle: saline) of the same molecule?
The T/C was 140 % of control.

What about the T/C (dose: 5.0 mg/kg/injection, schedule: Q04DX003 (ip), vehicle: saline) of the same molecule?
The T/C was 145 % of control.

And the survivor count (dose: 100.0 mg/kg/injection, schedule: Q04DX003 (ip), vehicle: saline)?
Its survivor count is 1 of 6.

What about the survivor count (dose: 200.0 mg/kg/injection, schedule: Q04DX003 (ip), vehicle: saline) of the same molecule?
Its survivor count is 1 of 6.

What about the survivor count (dose: 400.0 mg/kg/injection, schedule: Q04DX003 (ip), vehicle: saline) of the same molecule?
Its survivor count is 0 of 6.
